Measured values as given in article PMC10928564.
Results are given in words; binding and its absence hold for the method and conditions named. In cells and extracts the contact can be indirect. Some entries that bind do so weakly or less than the wild type.

Chains of the proteins cited; added tags and fusions are not shown.
UniProt P70372: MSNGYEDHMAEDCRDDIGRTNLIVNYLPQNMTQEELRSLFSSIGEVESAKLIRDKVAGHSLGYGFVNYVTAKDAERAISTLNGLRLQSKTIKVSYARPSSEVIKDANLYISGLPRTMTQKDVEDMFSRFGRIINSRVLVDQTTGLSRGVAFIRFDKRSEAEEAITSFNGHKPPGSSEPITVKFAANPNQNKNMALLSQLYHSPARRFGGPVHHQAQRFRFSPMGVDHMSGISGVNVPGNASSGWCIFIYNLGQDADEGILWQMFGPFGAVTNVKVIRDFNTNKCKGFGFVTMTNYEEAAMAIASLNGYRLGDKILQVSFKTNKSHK
UniProt Q02248: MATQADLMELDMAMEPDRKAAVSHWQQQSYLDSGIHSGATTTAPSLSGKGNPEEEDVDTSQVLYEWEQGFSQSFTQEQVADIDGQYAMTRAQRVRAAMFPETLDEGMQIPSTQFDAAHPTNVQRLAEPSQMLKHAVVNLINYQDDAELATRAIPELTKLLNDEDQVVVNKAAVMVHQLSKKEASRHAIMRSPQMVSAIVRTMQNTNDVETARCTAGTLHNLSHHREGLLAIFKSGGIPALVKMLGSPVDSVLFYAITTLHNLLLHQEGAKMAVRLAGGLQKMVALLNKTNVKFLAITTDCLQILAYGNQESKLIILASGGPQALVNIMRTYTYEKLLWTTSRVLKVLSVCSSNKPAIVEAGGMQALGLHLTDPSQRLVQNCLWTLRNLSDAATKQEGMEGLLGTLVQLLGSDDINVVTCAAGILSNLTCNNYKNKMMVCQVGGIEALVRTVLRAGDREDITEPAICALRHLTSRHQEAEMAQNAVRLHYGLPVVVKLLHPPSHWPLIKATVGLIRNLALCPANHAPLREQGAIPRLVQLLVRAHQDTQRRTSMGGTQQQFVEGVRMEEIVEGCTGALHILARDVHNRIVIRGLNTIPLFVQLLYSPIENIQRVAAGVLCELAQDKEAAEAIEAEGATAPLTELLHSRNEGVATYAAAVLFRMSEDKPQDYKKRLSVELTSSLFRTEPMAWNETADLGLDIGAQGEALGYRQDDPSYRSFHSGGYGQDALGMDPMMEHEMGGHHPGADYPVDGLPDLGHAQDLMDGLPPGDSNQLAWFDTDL

Target: human antigen R (HuR) (mouse (endogenous in MC3T3-E1)) (UniProt P70372)
Test: co-IP; anti-HuR antibody (5 μg) on Protein A + G magnetic beads, lysate of 2 × 10^7 MC3T3-E1 cells, overnight at 4°C, western blot; cells with or without 500 μM sodium arsenite (SA) for 30 min, and HuR-knockdown cells; anti-IgG as control

- binding: binds
Substance: β‐catenin (from UniProt Q02248 1-781)
